Reference: PubChem BioAssay AID540276 (National Center for Advancing Translational Sciences (NCATS), 2011)
Several values for one entry are separate records, joined by “and”; a condition that tells them apart may be missing. Equal values may be shown once. Screen size: about 300,000 compounds; about 5,400 (1.8%) were called active. This list was built around the results that the source calls inconclusive (neither active nor inactive); the mix of calls is not that of the screen. Calls come from the whole dose curve; tested in HEK293 cells. A potency beside an inconclusive call is a rough fit, not a confirmed value. A structure can be active in one record and inactive in another.

test: qHTS for inhibitors of binding or entry into cells for Marburg Virus; details: Marburg virus pseudotyped entry inhibition, cell reporter; activity change, negative = inhibition: at 37.8 µM (top of the series) unless noted
% is set by controls: 0 for no effect and ±100 for the full control effect; potency is the fitted concentration of half-maximal effect.

Structure (SMILES) | activity change, negative = inhibition | Potency
Nc1nc(N)c2sc3nc4c(cc3c2n1)CCC4 | inactive: 6.65% | 
CCOC(=O)Cc1sc(N)nc1C |  | inconclusive: 10 µM [activator, partial curve, poor fit]
C/C(CC(=O)Nc1cccc(Cl)c1C)=N\NC(=O)C(=O)NCC(C)C |  | inconclusive: 3.55 µM [activator, single point]
c1nc(N2CCCC2)c2[nH]cnc2n1 |  | inconclusive: 1.16 µM [activator, single point]
CCOC(=O)N1CCN(C(=O)CNC(=O)c2nn(-c3ccc(OC)c(Cl)c3)c(=O)c3ccccc23)CC1 |  | inconclusive: 5.01 µM [inhibitor, full curve]
CSc1ccccc1C(=O)NC(C)c1ccc(-n2ccnc2)cc1 (stereo not given) |  | inconclusive: 35.5 µM [inhibitor, single point]
CCCC(=O)N1CCN(c2ccc(NC(=O)c3ccc(N4CCCC4)c([N+](=O)[O-])c3)cc2Cl)CC1 |  | inconclusive: 35.5 µM [activator, single point]
O=C(NC1CCCCCCC1)c1ccco1 |  | inconclusive: 23.1 µM [activator, single point]
Cc1ccc(Nc2nc3ccccc3[nH]2)nc1 |  | inconclusive: 35.5 µM [inhibitor, single point]
Cc1cccc(-n2nnc(C(=O)Nc3ccc(F)cc3)c2N)c1 | inactive: -19.4% [at 46.1 µM] | 
Cc1c(NC(=O)c2cc3c(s2)-c2ccccc2OC3)cccc1[N+](=O)[O-] |  | inconclusive: 35.5 µM [inhibitor, single point]
CCOc1ccc(C(=O)c2cn(Cc3ccccc3)c3c(F)cc(F)cc3c2=O)cc1 | inactive: -5.93% [at 46.1 µM] | 
CC(=O)c1cccc(NC(=O)c2ccoc2C)c1 |  | inconclusive: 5.62 µM [inhibitor, single point]
C(=C\c1nc(N2CCCC2)c2ccccc2n1)/c1ccccc1 |  | active: 7.08 µM
Cc1ccc(C2C=C(c3ccc(F)cc3)Nc3nc(CCCO)nn32)cc1 (stereo not given) | inactive: -1.31% [at 46.1 µM] | 
O=P(Cc1ccccc1O)(c1ccccc1)c1ccccc1 |  | inconclusive: 14.1 µM [activator, partial curve, poor fit]
COC(=O)CC=C[C@@H](C)[C@H](O)c1ccccc1Br |  | inconclusive: 0.0119 µM [activator, full curve, poor fit]
O=C(Nc1c(-c2ccc(F)cc2)nc2ccccn12)c1cccc(F)c1 |  | inconclusive: 25.1 µM [activator, single point]
Cc1cccc(C)c1NC(=O)c1c[nH]c2ccccc12 |  | inconclusive: 7.08 µM [activator, partial curve, poor fit]
O=C1C(=O)N(CCN2CCOCC2)C(c2cccnc2)/C1=C(/O)c1ccc(Cl)cc1 (stereo not given) | inactive: 0.119% [at 46.1 µM] | 
CC1=CC(O)C(O)C2(C)C1CC1OC(=O)C(O)C3C(C)C(O)C4(O)OCC13C42 (stereo not given) |  | inconclusive: 15.8 µM [inhibitor, single point]
CCOC(=O)Cc1csc(NC(=O)CSc2nc(=O)[nH]c3c2CCC3)n1 |  | inconclusive: 0.112 µM [inhibitor, full curve, poor fit]

Structure (SMILES) | activity change, negative = inhibition | Potency
Cn1c(SCC(=O)Nc2nccs2)nnc1-c1ccc(S(=O)(=O)N2CCCC2)cc1 | inactive: 10.7% | 
CCOc1ccc(S(=O)(=O)NCCC(=O)NCC2(N3CCCCC3)CCCCC2)cc1 |  | inconclusive: 14.1 µM [inhibitor, single point]
Cc1cccn2c(=O)nc(SCC(=O)c3ccc(Cl)cc3)nc12 |  | inconclusive: 35.5 µM [inhibitor, single point]
NC(=S)Nc1cccc2cn[nH]c12 | inactive: 5.82% [at 46.1 µM] | 
CC1=CC(C)(C)N(S(=O)(=O)c2ccc(C)cc2)c2ccccc21 |  | inconclusive: 2.59 µM [inhibitor, full curve, poor fit]
CCN1CCN(CC(=O)Nc2cc(S(=O)(=O)N3CCCCC3)ccc2Cl)CC1 |  | inconclusive: 5.01 µM [inhibitor, full curve, poor fit]
Cn1c(=O)c2ccccc2n2c(CCl)nnc12 | inactive: -16% [at 46.1 µM] | 
CCC(C)(C)NC(=O)C(c1ccccn1)N(C(=O)c1csnn1)c1ccc(C)cc1 (stereo not given) |  | inconclusive: 3.55 µM [activator, partial curve, poor fit]
Cc1cccc(C)c1NC(=O)CSCc1cccc(CSCC(=O)Nc2c(C)cccc2C)n1 | inactive: -6.89% | 
CCN1CCN(c2ccc(NC(=O)c3ccc4c(c3)OCCO4)cc2C)CC1 |  | inconclusive: 3.16 µM [activator, partial curve, poor fit]
COC(=O)C(NC(=O)c1ccco1)(Nc1cc(C)ccn1)C(F)(F)F (stereo not given) |  | inconclusive: 22.4 µM [activator, partial curve]
Cc1cccc(OCC(O)CN2CC3(C)CC2CC(C)(C)C3)c1 (stereo not given) |  | inconclusive: 8.2 µM [inhibitor, partial curve, poor fit]
Cc1nc(C)c(CC(=O)N2CCc3c([nH]c4ccccc34)C2c2ccccn2)s1 (stereo not given) |  | inconclusive: 7.94 µM [activator, single point]
Cc1cccc(NC(=O)C2CCCN(S(=O)(=O)c3ccc4c(c3)oc(=O)n4C)C2)c1 (stereo not given) |  | inconclusive: 17.8 µM [inhibitor, single point]
COc1cccc(N(C(=O)c2ccco2)C(C(=O)NC2CCCC2)c2ccc(N3CCOCC3)cc2)c1 (stereo not given) |  | inconclusive: 2.51 µM [inhibitor, single point]
O=C(CC1SC(N2CCCCC2)=NC1=O)Nc1ccc(C(=O)Nc2ccccc2)cc1 (stereo not given) |  | inconclusive: 11.2 µM [activator, single point]
COc1cc(OC)c(NC(=O)CCNS(=O)(=O)c2cc(Br)cnc2N)cc1Cl |  | inactive
N#CC1(NC(=O)COC(=O)c2cc(O)c3ccccc3c2O)CCCCC1 |  | inconclusive: 35.5 µM [inhibitor, single point]
O=C(COC(=O)c1ccc(Oc2ccccc2)cc1)Nc1nnc(-c2ccccc2)o1 | inactive: -22% | 
COC(=O)[C@H](Cc1ccccc1)NC(=O)O[C@@H]1C(=O)c2cc(OC)ccc2O[C@H]1c1cccc(OC)c1 |  | inconclusive: 0.119 µM [activator, full curve, poor fit]
Nc1c(C(=O)Nc2ccc3c(c2)OCCO3)nnn1Cc1ccc(Br)cc1 | inconclusive: 0.623% [activator] [at 46.1 µM] | 
Cc1ccc(C2CC(C(F)(F)F)n3nc(C(=O)NCc4c(C)nn(C)c4C)c(Cl)c3N2)cc1 (stereo not given) |  | active: 11.6 µM

Structure (SMILES) | activity change, negative = inhibition | Potency
Nc1cccc(-c2cn3cc(C(F)(F)F)cc(Cl)c3n2)c1 |  | inconclusive: 29.1 µM [inhibitor, partial curve, poor fit]
CCOC(=O)c1c(C)n(C)c2ccc(OCC(O)CN3CCN(C)CC3)cc12 (stereo not given) | inactive: -0.636% | 
S=C(NCCCN1CCOCC1)N1CCN(c2cccc(Cl)c2)CC1 |  | inconclusive: 35.5 µM [inhibitor, single point]
CC(=O)NC(Cc1ccccc1)C(=O)Oc1ccc2ccccc2c1 (stereo not given) |  | inconclusive: 7.08 µM [activator, partial curve, poor fit]
O=C(c1ccc2c(c1)N(Cc1ccc(F)cc1)C(=O)c1ccccc1S2(=O)=O)N1CCN(c2ccccn2)CC1 |  | active: 5.01 µM and active: 3.16 µM
C=CCC1NCCc2c(Br)cccc21 (stereo not given) |  | inconclusive: 8.91 µM [inhibitor, partial curve, poor fit]
Cc1cn(C2OC(COC(=O)c3ccccc3)C(OC(=O)c3ccccc3)C2OC(=O)c2ccccc2)c(=O)[nH]c1=O (stereo not given) |  | inconclusive: 25.9 µM [inhibitor, single point]
CCCCS(=O)(=O)c1oc(-c2ccc(F)cc2)nc1S(=O)(=O)c1ccccc1 |  | inconclusive: 20 µM [inhibitor, single point]
CCN(Cc1cnn(C)c1)Cc1nc(C2(c3ccc(C)cc3)CCCC2)no1 |  | inconclusive: 35.5 µM [inhibitor, single point]
CCOC(=O)c1[nH]c(C)c(C(=O)OCc2ccc(C)cc2)c1C | inactive: -10.6% [at 46.1 µM] | 
Cc1ccc(CSc2ncc(Cl)c(C(=O)Oc3ccc(F)cc3)n2)cc1 |  | inconclusive: 0.562 µM [inhibitor, full curve, poor fit]
CC(=O)c1ccc(N2CCN(C(=O)C3CCN(S(=O)(=O)c4cccs4)CC3)CC2)cc1 |  | inconclusive: 12.6 µM [inhibitor, single point]
COc1ccc(C2c3c4c(n(C)c3CCN2C)CCN(C)C4c2ccc(OC)cc2)cc1 (stereo not given) |  | inconclusive: 7.3 µM [inhibitor, partial curve, poor fit]
O=C(CSc1nc2cccnc2n1Cc1ccccc1)N1CCCC1 | inactive: 1.44% | 
COc1ccccc1-c1nnc2sc(COc3ccc(Cl)cc3Cl)nn12 | inactive: 17.2% | 
COC(=O)N1C(C2CC2)=Cc2ccccc2C1CC(C)=O (stereo not given) |  | inconclusive: 1.19 µM [activator, single point]
O=C(N/N=C/c1cc([N+](=O)[O-])ccc1N1CCNCC1)c1ccc([N+](=O)[O-])cc1 | inactive: 12.3% | 
O=C(OCc1cnc(Cl)s1)c1cccc(Cl)c1Cl |  | inconclusive: 3.98 µM [inhibitor, single point]
CN(Cc1cccnc1)C(=O)Cc1ccc(NS(=O)(=O)c2cccc(C(F)(F)F)c2)cc1 |  | inconclusive: 6.31 µM [activator, single point]
CCOC(=O)c1c(NC(=O)C(C)Sc2cn(CCNC(=O)c3ccccc3OC)c3ccccc23)sc2c1CCC2 (stereo not given) |  | inconclusive: 22.4 µM [inhibitor, partial curve, poor fit]
O=C(Nc1cc(Cl)ccc1-n1cncn1)c1ccc([N+](=O)[O-])o1 |  | inconclusive: 11.2 µM [inhibitor, partial curve, poor fit]
